System: B16BL6 melanoma
Test: Established subcutaneous B16BL6 melanoma in water- or ethanol-drinking C57BL6 mice: tumor growth, metastasis, body weight, intake, body fat
Details: for food intake: ethanol-consuming mice, treatment period
Experimental: In an effort to approximate the effect of SSRIs on melanomas in clinical situations, administration of the agents began after tumor growth was apparent.
Fourteen to 16 C57BL6 mice per group were inoculated s.c. with 1×10^6 B16BL6 melanoma cells. […] The test agent and saline control were injected daily subcutaneously (s.c.) into the gluteal region opposite from the site of tumor inoculation, approximately two hours before the dark cycle. […] At 21 days the animals were sacrificed.
Female C57/BL6 mice consumed either water or 20% w/v ethanol ad libitum for six weeks prior to inoculation with of melanoma cells. The mice were injected with 1×10^6 tumor cells subcutaneously (s.c.) into the dorsal hip.
Two weeks after inoculation, the animals were divided into four treatment groups: (1) water drinking or (2) ethanol drinking, both groups injected with saline control for seven days; (3) water drinking or (4) ethanol drinking. […] Tumor growth was measured with calipers on days 14, 16, 18, and 20. Mice were killed on day 21 and necropsied.
Perigonadal and carcass fat were determined. Body weight, food consumption, and fluid-consumption were measured continually throughout the experiment.
Perigonadal fat, a measure of body fat content, was removed at necropsy and weighed. Mice were then dehydrated at 60° C. until they reached constant weight. They were then pulverized in a Bel-Art Micro-Mill. The whole carcass was transferred to a soxhlet extractor and the lipid was extracted with chloroform:methanol (2:1) for 24 hours. The extraction cone containing the carcass was removed, air-dried to evaporate the chloroform and methanol, and then weighed. The difference in weight was the weight of carcass lipid. The percentage of carcass lipid was calculated as the weight of lipid/dry carcass weight×100.

With `CNCCC(Oc1ccc(C(F)(F)F)cc1)c1ccccc1` (stereo not shown) [fluoxetine] the food intake (versus saline-injected controls) was “stimulated food intake”, the food intake (versus saline-injected controls, listed as Fluoxetine) was “significant (p<0.001) increase” and the ethanol consumption (ethanol-drinking mice, third week of tumor growth, versus saline-injected controls) was “significant (p<0.001) increase”. The “body weight gain from week 3 to week 4” value (water- and ethanol-drinking tumor-bearing mice) was “did not gain body weight”.
